Reference: patent US20230116196A1, “METHOD OF TREATING CNS DISORDERS WITH NEU[…] GABAERGIC COMPOUNDS” (priority 2017, published 2023)
Some entries share one result that the patent states for a list of compounds.

Test system: kainate-induced seizures
Assay: Kainate-induced pharmacoresistant seizures (SE), EEG seizure power
Type: in vivo, mouse
Details: wild type mice

Question: How did the “reduction in seizure power 10 minutes after treatment” value (3 mg/kg IP) turn out when C[C@@]1(O)CC[C@@]2(C)[C@H](CC[C@@H]3[C@@H]2CC[C@]2(C)[C@@H](C(=O)Cn4nccn4)CC[C@@H]32)C1 [SGE-516] was run?
Answer: The value was ≥ 50%.

Question: Which “reduction in seizure power 10 minutes after treatment” value (80 kg/mg (so in the source) IP) does the source give for C[C@]12CC[C@@H](O)C[C@H]1CC[C@@H]1[C@@H]2CC[C@]2(C)[C@@H](C(=O)CO)CC[C@@H]12 [THDOC, Tetrahydrodeoxycorticosterone] here?
Answer: Its value is ≥ 50%.
